Results published in PMC10883948.
These are yes or no findings as the source states them, for the method shown. Some entries that bind do so weakly or less than the wild type.

By UniProt entry, the sequences of proteins in these tests, tags left out. Residues count along the entry.
UniProt P53762: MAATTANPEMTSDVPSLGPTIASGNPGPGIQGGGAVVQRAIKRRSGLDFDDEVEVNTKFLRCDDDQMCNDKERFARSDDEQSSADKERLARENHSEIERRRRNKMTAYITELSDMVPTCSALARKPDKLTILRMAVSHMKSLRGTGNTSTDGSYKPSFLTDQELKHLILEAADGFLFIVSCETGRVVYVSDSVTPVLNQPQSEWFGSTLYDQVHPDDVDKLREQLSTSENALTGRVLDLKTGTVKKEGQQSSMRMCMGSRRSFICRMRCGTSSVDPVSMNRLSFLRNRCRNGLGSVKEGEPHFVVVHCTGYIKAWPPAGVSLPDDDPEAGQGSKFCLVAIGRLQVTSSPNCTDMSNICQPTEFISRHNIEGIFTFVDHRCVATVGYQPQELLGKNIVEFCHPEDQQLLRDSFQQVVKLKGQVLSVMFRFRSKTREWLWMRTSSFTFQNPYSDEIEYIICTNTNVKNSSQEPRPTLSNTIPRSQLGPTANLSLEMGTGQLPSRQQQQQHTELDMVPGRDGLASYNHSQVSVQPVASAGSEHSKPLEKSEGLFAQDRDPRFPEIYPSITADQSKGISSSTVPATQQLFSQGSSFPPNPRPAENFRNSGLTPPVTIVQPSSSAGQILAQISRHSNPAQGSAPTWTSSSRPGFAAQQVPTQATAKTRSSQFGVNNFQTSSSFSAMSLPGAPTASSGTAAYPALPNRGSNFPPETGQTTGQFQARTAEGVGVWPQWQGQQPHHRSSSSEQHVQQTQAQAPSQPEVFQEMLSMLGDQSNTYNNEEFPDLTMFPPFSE
UniProt P30561, residues 10-848: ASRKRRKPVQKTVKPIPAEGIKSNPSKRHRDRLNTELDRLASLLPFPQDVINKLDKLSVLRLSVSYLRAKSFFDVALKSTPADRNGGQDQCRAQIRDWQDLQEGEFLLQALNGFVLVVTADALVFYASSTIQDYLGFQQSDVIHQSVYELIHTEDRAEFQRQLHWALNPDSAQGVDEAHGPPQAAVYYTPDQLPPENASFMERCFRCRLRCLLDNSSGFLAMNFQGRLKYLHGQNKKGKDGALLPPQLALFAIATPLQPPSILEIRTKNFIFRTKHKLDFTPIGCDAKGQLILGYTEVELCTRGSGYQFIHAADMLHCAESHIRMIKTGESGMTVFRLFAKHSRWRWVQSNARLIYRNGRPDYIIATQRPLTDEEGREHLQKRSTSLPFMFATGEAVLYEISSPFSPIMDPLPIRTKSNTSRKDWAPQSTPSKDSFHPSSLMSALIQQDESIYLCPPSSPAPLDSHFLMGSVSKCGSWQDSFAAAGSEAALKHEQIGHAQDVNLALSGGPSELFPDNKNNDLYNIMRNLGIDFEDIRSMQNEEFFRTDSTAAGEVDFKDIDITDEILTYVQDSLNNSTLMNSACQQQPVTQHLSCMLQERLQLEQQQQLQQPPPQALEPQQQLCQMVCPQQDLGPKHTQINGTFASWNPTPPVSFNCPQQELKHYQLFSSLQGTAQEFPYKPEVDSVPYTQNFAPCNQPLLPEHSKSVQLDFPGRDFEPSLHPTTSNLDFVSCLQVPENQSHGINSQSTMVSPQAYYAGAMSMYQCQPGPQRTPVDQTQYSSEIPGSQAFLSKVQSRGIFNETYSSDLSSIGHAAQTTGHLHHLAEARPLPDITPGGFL

Target: AHR nuclear translocator (mouse (endogenous in naive CD4+ T cells)) (UniProt P53762)
Assay: Western blot under non-reduced denaturing conditions; mouse naive CD4+ T cells under Th17-inducing conditions, with or without LA (con+LA group); AHR and ARNT detected

- binding: binds
Substance: aryl hydrocarbon receptor (from UniProt P30561 10-848)
